## Library screen at single concentrations

A: 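Whole-cell growth test on Mycobacterium tuberculosis, read after 3 days in glucose-containing 7H9 medium; the read-out is not stated. Compounds at 500 µM. The record gives no direction; compounds that gave an IC50 in retests scored well above the rest, so higher reads as more growth inhibition. Size under these conditions: about 18,000 compounds, about 1,400 of them at 50% or above in at least one test.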
B: 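Whole-cell growth test on Mycobacterium tuberculosis, read after 4 days in a medium based on cholesterol and the lipid DPPC; the read-out is not stated. Compounds at 500 µM. Higher reads as more growth inhibition (inferred: compounds with an IC50 in retests scored well above the rest). About 18,000 compounds were tested under these conditions; 5% (about 900) showed 50% or more at least once.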

Values are the deposited “Percent Effect”, in %.
How 0% and 100% were set is not recorded. Most values in the screen are low, and negative values occur.
This is an unselected part of the compounds tested.

structure	A	B
CC(=O)Nc1ccc(CC(=O)N2CCOCC2)cc1	6.924%	5.113%
CC(C(N)=O)S(=O)(=O)Cc1ccc(Br)s1 (stereo not given)	26.11%	10.12%
CCN(Cc1ccc(CO)o1)CC1CCCO1 (stereo not given)	1.264%	-2.563%
NCCCc1ccccn1	54.67%	41.16%
Cn1ccc(C(=O)Nc2sc3c(c2C(N)=O)CCC3)n1	3.018%	-5.353%
N#CCc1ccc2c(c1)CCO2	5.442%	7.784%
COC1CCN(C(=O)Nc2ccccc2)CC1	25.41%	8.902%
N#CCC(=O)C1CCCOC1 (stereo not given)	-12.24%	-21.22%
c1ccc(-n2nnnc2CN2CCCNCC2)cc1	41.82%	-0.8454%
COc1ccc(C(=O)C2CCNCC2)cc1OC	13.06%	-6.181%
CN(Cc1nnc2ccccn12)S(C)(=O)=O	15.24%	-15.93%
CC(C)(C)OC(=O)CCOCCO	11.07%	2.534%
CS(=O)(=O)NC(c1ccc(F)cc1)c1cccnc1 (stereo not given)	50.7%	14.42%
CCOCCN1CCCC(CNS(C)(=O)=O)C1 (stereo not given)	5.687%	6.824%
COc1ccccc1N1CCN(CC(N)=O)CC1=O	2.34%	6.728%
CCNC(=O)c1csc(N2CCCC(C)C2)n1 (stereo not given)	46.68%	37.16%
NC(=O)NCC1CCN(Cc2ccccc2)C1 (stereo not given)	10.48%	3.594%
CO[C@H]1CNCC1NC(=O)COc1cc(C)ccc1F (stereo not given in full)	10.19%	14.32%
N#CCCNC(=O)CN(CC1CCOC1)C1CC1 (stereo not given)	3.727%	2.496%
CCN(CC(=O)N1CCNC(=O)C1)Cc1ccc(Cl)s1	18.82%	5.74%
Nc1ncccc1CN1CCN(C2CCOCC2)CC1	-13.02%	-12.26%
CS(=O)(=O)Nc1ccc2[nH]c(=O)oc2c1	-4.986%	-19.32%
O=C(c1ccc(Cl)s1)N1CCN(c2nc[nH]n2)CC1	43.67%	25.97%
Cc1nonc1CC(=O)N1CCCC(c2ncc[nH]2)C1 (stereo not given)	-1.716%	3.902%
Cc1cc(CN(C)C(=O)CSCCN2CCCC2)on1	-8.079%	-19.81%
CCn1cc(C(=O)NCCCC(N)=O)c2ccccc21	8.829%	-13.94%
CCN(c1ccc(C(=O)NC[C@H](C)O)cc1)C(C)C	38.59%	-2.91%
CC(C)C(=O)c1cnccc1N	10.25%	24.33%
N[C@@H]1C[C@H]1C(F)(F)F	8.694%	3.097%
c1ccc(NC2CCN(C3CCCC3)C2)nc1 (stereo not given)	55.99%	70.38%
Cc1nn(C)c(C(=O)NC(C)CN2CCOCC2)c1Br (stereo not given)	10.94%	24.58%
CNC(=O)CN1CCN(C)c2ccccc2C1	4.967%	-8.195%
Cc1ccccc1-n1nnnc1SC(C)C(=O)N(C)C (stereo not given)	40.68%	22.39%
COc1ccc(F)cc1C(=O)N1CC[C@H]2CC[C@@H](C1)N2	5.403%	0.4465%
Cn1cc(C(=O)NC2CCS(=O)(=O)C2)c2ccccc21 (stereo not given)	9.211%	-10.8%
CC(=O)c1ccc(OCC(O)CNC2CCCC2)cc1 (stereo not given)	25.9%	20.46%
Cc1ccc(C)c(NC(=O)CN2CCC(O)CC2)c1	3.369%	17.31%
C1CN(CC2CCOC2)CCN1 (stereo not given)	-8.543%	-21.45%
Cn1cccc1C(=O)NC(=O)CSc1ncccn1	6.059%	3.82%
NC1CCS(=O)(=O)c2ccc(Br)cc21 (stereo not given)	58.98%	66.94%
CCS(=O)(=O)CC(C)NCc1ccco1 (stereo not given)	0.7801%	1.129%
O=S1(=O)NCCN1c1ccccc1	10.72%	2.923%
O=S(=O)(c1cccnc1)N1CCCCC1	21.28%	6.486%
NS(=O)(=O)N1CCN(c2cc(F)ccc2F)CC1	13.8%	23.47%

For reference, 5 entries once more:

{"structure": "CN(Cc1nnc2ccccn12)S(C)(=O)=O", "A": 15.24, "B": -15.93}
{"structure": "Cc1cc(CN(C)C(=O)CSCCN2CCCC2)on1", "A": -8.079, "B": -19.81}
{"structure": "N#CCC(=O)C1CCCOC1", "stereo": "stereo not given", "A": -12.24, "B": -21.22}
{"structure": "CC(=O)Nc1ccc(CC(=O)N2CCOCC2)cc1", "A": 6.924, "B": 5.113}
{"structure": "Cc1nn(C)c(C(=O)NC(C)CN2CCOCC2)c1Br", "stereo": "stereo not given", "A": 10.94, "B": 24.58}

Source: ChEMBL document CHEMBL3988442, “University of Dundee, Small-Polar-MMV Screening Library” (2021).